Results published in the supplement of paper PMC8728848.
The list shows a part of the results.

Key:
Assay in all cases: glycan array binding signal (z-score within array); higher = stronger binding
Conditions in all cases: glycan notation: IUPAC condensed, linker removed
[1] = target: Fuc(a1-2)Gal(b1-4)GlcNAc(b1-3)Gal(b1-4)GlcNAc(b1-2)Man(a1-3)[Fuc(a1-2)Gal(b1-4)GlcNAc(b1-3)Gal(b1-4)GlcNAc(b1-2)Man(a1-6)]Man(b1-4)GlcNAc(b1-4)GlcNAc
Method in brief: (§1)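 From the Consortium for Functional Glycomics database, 3228 arrays were curated, keeping only those whose protein sequence was available. Binding is given as a within-array Z-score averaged across arrays sharing a protein sequence and across linkers. Negative Z-scores can be read as non-binding.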

[2] = target: Fuc(a1-2)Gal(b1-4)GlcNAc(b1-3)Gal(b1-4)GlcNAc(b1-3)Gal(b1-4)GlcNAc
Method in brief: as §1

[3] = target: Fuc(a1-2)Gal(b1-4)GlcNAc(b1-3)GalNAc
Method in brief: as §1

[4] = target: Fuc(a1-2)Gal(b1-4)GlcNAc(b1-3)[Fuc(a1-2)Gal(b1-4)GlcNAc(b1-6)]GalNAc
Method in brief: as §1

[5] = target: Fuc(a1-2)Gal(b1-4)GlcNAc(b1-3)[Fuc(a1-3)[Gal(b1-4)]GlcNAc(b1-6)]Gal(b1-4)Glc
Method in brief: as §1

[6] = target: Fuc(a1-2)Gal(b1-4)GlcNAc(b1-6)GalNAc
Method in brief: as §1

[7] = target: Fuc(a1-2)Gal(b1-4)GlcNAc6S
Method in brief: as §1

[8] = target: Fuc(a1-2)Gal(b1-4)[Fuc(a1-3)]GlcNAc
Method in brief: as §1

[9] = target: Fuc(a1-2)Gal(b1-4)[Fuc(a1-3)]GlcNAc(b1-2)Man(a1-3)[Fuc(a1-2)Gal(b1-4)[Fuc(a1-3)]GlcNAc(b1-2)Man(a1-6)]Man(b1-4)GlcNAc(b1-4)[Fuc(a1-6)]GlcNAc
Method in brief: as §1

[10] = target: Fuc(a1-2)Gal(b1-4)[Fuc(a1-3)]GlcNAc(b1-2)[Fuc(a1-2)Gal(b1-4)[Fuc(a1-3)]GlcNAc(b1-4)]Man(a1-3)[Fuc(a1-2)Gal(b1-4)[Fuc(a1-3)]GlcNAc(b1-2)Man(a1-6)]Man(b1-4)GlcNAc(b1-4)GlcNAc
Method in brief: as §1

[11] = target: Fuc(a1-2)Gal(b1-4)[Fuc(a1-3)]GlcNAc(b1-3)Gal(b1-4)[Fuc(a1-3)]GlcNAc
Method in brief: as §1

[12] = target: Fuc(a1-2)Gal(b1-4)[Fuc(a1-3)]GlcNAc(b1-3)Gal(b1-4)[Fuc(a1-3)]GlcNAc(b1-3)Gal(b1-4)[Fuc(a1-3)]GlcNAc
Method in brief: as §1

[13] = target: Fuc(a1-2)Gal(b1-4)[Fuc(a1-3)]GlcNAc(b1-3)GalNAc
Method in brief: as §1

[14] = target: Fuc(a1-2)Gal(b1-4)[Fuc(a1-3)]GlcNAc(b1-3)[Neu5Ac(a2-6)Gal(b1-4)GlcNAc(b1-6)]Gal(b1-4)Glc
Method in brief: as §1

[15] = target: Fuc(a1-2)Gal3S(b1-4)GlcNAc
Method in brief: as §1

[16] = target: Fuc(a1-2)Gal6S(b1-3)GlcNAc
Method in brief: as §1

[17] = target: Fuc(a1-2)Gal6S(b1-3)GlcNAc6S
Method in brief: as §1

Fuc(a1-2)Gal6S(b1-4)Glc = target: Fuc(a1-2)Gal6S(b1-4)Glc
Method in brief: as §1

[18] = target: Fuc(a1-2)Gal6S(b1-4)Glc6S
Method in brief: as §1

Fuc(a1-2)[Gal(a1-3)]Gal = target: Fuc(a1-2)[Gal(a1-3)]Gal
Method in brief: as §1

[19] = target: Fuc(a1-2)[Gal(a1-3)]Gal(b1-3)GalNAc
Method in brief: as §1

[20] = target: Fuc(a1-2)[Gal(a1-3)]Gal(b1-3)GalNAc(b1-3)Gal(a1-4)Gal(b1-4)Glc
Method in brief: as §1

[21] = target: Fuc(a1-2)[Gal(a1-3)]Gal(b1-3)GlcNAc
Method in brief: as §1

[22] = target: Fuc(a1-2)[Gal(a1-3)]Gal(b1-3)GlcNAc(b1-2)Man(a1-3)[Fuc(a1-2)[Gal(a1-3)]Gal(b1-3)GlcNAc(b1-2)Man(a1-6)]Man(b1-4)GlcNAc(b1-4)GlcNAc
Method in brief: as §1

[23] = target: Fuc(a1-2)[Gal(a1-3)]Gal(b1-3)GlcNAc(b1-2)Man(a1-3)[Fuc(a1-2)[Gal(a1-3)]Gal(b1-3)GlcNAc(b1-2)Man(a1-6)]Man(b1-4)GlcNAc(b1-4)[Fuc(a1-6)]GlcNAc
Method in brief: as §1

[24] = target: Fuc(a1-2)[Gal(a1-3)]Gal(b1-3)GlcNAc(b1-3)GalNAc
Method in brief: as §1

[25] = target: Fuc(a1-2)[Gal(a1-3)]Gal(b1-3)GlcNAc(b1-6)GalNAc
Method in brief: as §1

[26] = target: Fuc(a1-2)[Gal(a1-3)]Gal(b1-4)Glc
Method in brief: as §1

[27] = target: Fuc(a1-2)[Gal(a1-3)]Gal(b1-4)GlcNAc
Method in brief: as §1

[28] = target: Fuc(a1-2)[Gal(a1-3)]Gal(b1-4)GlcNAc(b1-2)Man
Method in brief: as §1

B1: BT4246 (Bacteroides thetaiotaomicron), Q89ZX5 (protein)
chain: MGSSHHHHHHENLYFQGHMASDYLDVVPPEQPNIDDAMSSPTRALGFLYSCYGGVSTDLPSAYLGEINSTTDEYVLPYSWNTDGYWGAYAFNTASSTNQDWLWGTTYQYIGQCYLFLQKLENAGSDIASDAEKEQWRAECQFLVAYYHFATLRRYGPIPITDSYIPMDTPTSEYNGRFHFDYCVDWIANQLDEAAKVLPANRTVTNEWGRATSTIAKAVKARLLLYAASPLWNGSFPYPNWQNENFETPGYGKALVSNTYDKSKWERALAACQEALTLATTSGDRELYDDDEYYSRQSLNLPFVPGVADVEDNKEFLKNVMKMRYAVSTRESEGNKEIIWGLSNQFDFYSRYPLRILKKSDGTWHAGYSGVSPTLYTFEHFYTANGKLPEKDLDFTPSSEWFESAGISSREDIIKLNVGREPRFYAWMAFDGGDYGTKFAAGSPLKLEMRNSEMHGYNPSLFNRDHSVTGFLTQKFVDPVTEFYTAGGSTSGTSAPTILFRLAELYLNVAECHAALGNTQEAIDALNPVRERAGIPKLTLADITNNMTIKDWVHNERFVELWNEGHRFFDVRRWAEGAKYFGANKREGLNAEVQSPTFEEFNKRTTVDAPYVWENRMYLNPVFYNEVYKNPQMVQAPGY
glycan array binding signal (z-score) [1]: 0.084 | glycan array binding signal (z-score) [2]: 0.368 | glycan array binding signal (z-score) [3]: 1.95 | glycan array binding signal (z-score) [4]: -1.4 | glycan array binding signal (z-score) [5]: 1.17 | glycan array binding signal (z-score) [6]: -0.332 | glycan array binding signal (z-score) [7]: -1.28 | glycan array binding signal (z-score) [8]: -1.11 | glycan array binding signal (z-score) [9]: -0.552 | glycan array binding signal (z-score) [10]: 0.285 | glycan array binding signal (z-score) [11]: -0.218 | glycan array binding signal (z-score) [12]: -0.37 | glycan array binding signal (z-score) [13]: -0.125 | glycan array binding signal (z-score) [14]: 0.068 | glycan array binding signal (z-score) [15]: -0.268 | glycan array binding signal (z-score) [16]: 1.75 | glycan array binding signal (z-score) [17]: -0.889 | glycan array binding signal (z-score) (Fuc(a1-2)Gal6S(b1-4)Glc): 0.64 | glycan array binding signal (z-score) [18]: -1.65 | glycan array binding signal (z-score) (Fuc(a1-2)[Gal(a1-3)]Gal): -0.193 | glycan array binding signal (z-score) [19]: 0.803 | glycan array binding signal (z-score) [20]: -0.117 | glycan array binding signal (z-score) [21]: -0.528 | glycan array binding signal (z-score) [22]: 1.31 | glycan array binding signal (z-score) [23]: 0.113 | glycan array binding signal (z-score) [24]: -0.267 | glycan array binding signal (z-score) [25]: 0.604 | glycan array binding signal (z-score) [26]: -0.388 | glycan array binding signal (z-score) [27]: -0.986 | glycan array binding signal (z-score) [28]: -0.872
